From US5597809A, “Treatment of optic neuritis” (priority 1994, dated 1997)
“Also recorded” adds a separate entry of the source. At least one structure is not confirmed: it was looked up by name or label, or the drawing left a doubt.

Test system: retinal ganglion cells
Test: Attenuation of ethambutol toxicity by NMDA antagonists and a calcium channel blocker (retinal ganglion cell viability, FIG. 3)
Settings: 100 μM drug with 10 μM ethambutol, 24 hours

`NC(CCCP(=O)(O)O)C(=O)O` (stereo not shown) [APV, 2-amino-5-phosphonovalerate] was tested, and the “protection of retinal ganglion cells from ethambutol-mediated toxicity” value was “do protect retinal ganglion cells from ethambutol induced injury; also recorded: protect retinal ganglion cells from ethambutol-mediated toxicity”.
